IC50 data for 1 compound are collected here from patent US10487068B2, “Pyridazine derivatives as RORc modulators” (Genentech, Inc., priority 2015, dated 2019).

Chains of the proteins cited; added tags and fusions are not shown. Residues count along the entry.
UniProt P51449, 269-508 limits assumed: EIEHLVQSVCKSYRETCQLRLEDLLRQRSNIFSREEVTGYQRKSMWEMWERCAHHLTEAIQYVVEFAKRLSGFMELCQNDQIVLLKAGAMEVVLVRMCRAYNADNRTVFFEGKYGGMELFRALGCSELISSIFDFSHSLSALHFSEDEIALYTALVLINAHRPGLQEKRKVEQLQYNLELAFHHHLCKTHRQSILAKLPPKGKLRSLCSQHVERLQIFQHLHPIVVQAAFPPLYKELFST

Values joined by “and” are separate entries in the source; they are usually repeats but may differ in a detail not shown here. Identical values can stand only once. The match of structure and compound is tentative.

The term IC50 denotes the midpoint of a concentration-inhibition curve.

This assay concerns the target RORc ligand binding domain (Homo sapiens, UniProt P51449). Nature of the assay: In Vitro RORc Ligand Binding Assay. Conditions: read-out: RORc IC50; radioligand 25-[3H]hydroxycholesterol 6 nM; 0.6 ug/mL RORc receptor; 3 h at 25° C.

Regarding `CC(C)(O)c1cn(-c2cncc([C@@]34CC[C@@H](c5cc(-c6c(F)cccc6F)nnc53)C4(C)C)n2)cn1`, the 50% inhibitory concentration (IC50) was 4.2 nM and 2.5 nM.
